The values that follow come from PubChem BioAssay AID1347423 (Functional Genomics Laboratory (NCATS/FGL), 2020).

In all, about 52,000 sequences went through this assay and about 210 (0.4%) were called active.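 How the source made its calls: active means gene whose silencing raises cell survival under the drug, median off-target-corrected z-score across its silencing RNAs 2 or more; inactive means the rest.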 Some of the results follow.

A short description of the test: Resistance to Poly (ADP-Ribose) Polymerase inhibitor: Gene Identification via Genome-wide siRNA Screen. The following applies: mouse BRCA2 R2336H ES cells, olaparib, CellTiter-Glo viability; hits give high values. The procedure, abridged: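 Genome-wide siRNA screen (3 siRNAs/gene, 20 nM) in mouse ES cells carrying hypomorphic BRCA2 R2336H; olaparib 500 nM added 48 h post-transfection, CellTiter-Glo viability 72 h later. Normalized to plate-median negative control; MAD z-scores, gene median, seed-adjusted.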
A general note: ATP-based viability assays read luminescence as a measure of living cells.
Consider “CCACCUUUCUCACAGAUAATT against A430065P19Rik”, for which the z-score is inactive: -0.213.

For the sequence GGACGAUUCAAGGUAACAUTT against Esrrg, the z-score was inactive: -0.00394.

Take GGCUUUACAAAUCUUGUCUTT against Gpx6: the z-score is inactive: 0.551.

GCGAUGUUUGGAUGACUUATT against Eftud1: the z-score was inactive: -0.883.

As for “GCAUCUGGAAUUAUGGGUCTT against 2310030G06Rik”, the z-score is inactive: -0.55.

For “GGAAAACUUGAGGCGGAUCTT against E130303B06Rik”, the z-score was inactive: 1.04.

CCUCGGUCAGAUUCCUGAUTT against Phpt1: the z-score was inactive: -0.189.

Take GAUGUCCUUCACCUUUGCCTT against Atp5d: the z-score is inactive: -1.62.

Take CCCUUUCGAGGUGGUAAAATT against Slc25a21: the z-score is inactive: -0.768.

For “GGGCGUACCUGUCUUUUCATT against 9030616D13Rik”, the z-score is inactive: 2.29.

“GGGACUCCCUACAUUAAUCTT against 1110033O09Rik”: the z-score is inactive: 1.3.

Turning to GGAAAUGGCUAUUGAUAUCTT against Actl6b, the z-score is inactive: -0.329.

With GGACUAUAUCAGCGGAAGUTT against BC023957, the z-score is inactive: 0.454.

As to CCCUACAAAGUAUAUCGAATT against Isgf3g, the z-score was inactive: -0.403.

Consider CGAAUGGCAUACAAUAACCTT against C1qtnf7, for which the z-score was inactive: -0.174.

For GGUAGAGAACCAUUUGCUGTT against Dtnbp1, the z-score was inactive: -0.121.

For the sequence GCCCAGGUCUAAUGUCUAATT against Tac4, the z-score is inactive: -2.75.

“GCAAGGAUUACCUAUAGGATT against 3000004N20Rik”: the z-score was inactive: 0.588.

In the case of GGAAAGGGCGGUUCAAAAGTT against Cacnb1, the z-score was inactive: 0.656.

For CCAUCUUGACAUCUCGUGUTT against Olfr592, the z-score was inactive: -0.522.

With “GGCAACAACAUACCUAAUATT against 2410005O16Rik”, the z-score was inactive: 0.687.

For GGUCAAACAAGAAACAGUUTT against Prdm1, the z-score is inactive: 0.23.

Regarding GGCAUUCUGAGGAGAGCAATT against Tcfap2d, the z-score is inactive: 0.634.

On to CGAGUUAGCCUUCAUCCCUTT against Islr, for which the z-score was inactive: -0.0401.

Consider GGACAUUUUUAUGCACAAUTT against Il1rl2, for which the z-score was inactive: 0.108.

For the sequence GGCAAAGAUAAUAAAGCUATT against Xpo1, the z-score was inactive: -1.85.

Take GGGACGCAGUUUUCCGAUGTT against Nkx2-3: the z-score was inactive: 0.973.

GGAACAGAAGAAAAAACACTT against Ftsj3: the z-score is inactive: -0.749.

In the case of CCUCAAUGGGUUUGUUCAATT against Kcns3, the z-score was inactive: -1.21.

As for GGGUUAUUCAAGAAAAGCATT against Stip1, the z-score was inactive: -1.59.

Regarding “GCUGUGUCGGUGUUGGAUGTT against C330006K01Rik”, the z-score was inactive: -2.28.

As for “GGCUCUUGCCAGAAUUAACTT against 0610009E20Rik”, the z-score was inactive: 1.15.

CGAGAUUAUCAGUCAAUUGTT against LOC541463: the z-score is inactive: 1.32.

In the case of GCAGUGUAACUGGUAAAAUTT against AI553587, the z-score was inactive: 1.55.

As to “CGUGUUCUAUGAUGGUAAUTT against 1300018J18Rik”, the z-score is inactive: 0.901.

For GGGACUGCUCUUUUCUCUCTT against Rabif, the z-score was inactive: 0.11.

For the sequence GCUGUCAUUCUGUGGUCCATT against Olfr538, the z-score was inactive: -0.00326.

Consider GGGAUCUUCGGAACUUAGUTT against Pde1a, for which the z-score is inactive: 0.84.

As to GCGGAGAGUUAAUGUUUCUTT against Cbx3, the z-score was inactive: -0.826.

Consider “GCACGAAUGCCUUUUUAGATT against 4930548G07Rik”, for which the z-score is inactive: 0.15.

For the sequence GGAUUUUCGGGACUCUUUATT against Sfmbt1, the z-score was inactive: -2.31.

On to “CCCUCAAAUAACAUCCAGGTT against 1700029G01Rik”, for which the z-score is inactive: -3.61.

As to GGUGCUGAUUGACCUAACATT against Wdtc1, the z-score was inactive: -0.931.

As for GGAAUAUCUGAUAUCAGUATT against Mamdc1, the z-score is inactive: -0.992.

Consider GGAUCAGAUAAAAUACCAATT against Oas2, for which the z-score is inactive: -1.32.

With GGGUCCUGAUAAUGUCCUATT against Tlr1, the z-score is inactive: 0.66.

For “GGAAUGUGUCUUCUCAAGUTT against A530021J07”, the z-score is inactive: 0.911.

As for “GGUCACAACCAUGAAGAGCTT against 1700093K21Rik”, the z-score was inactive: -0.947.

On to GGUGGUAGAACUGUUAAAATT against Klc2, for which the z-score was inactive: 1.22.

As to GGAAUUUGAGAUCUACACUTT against Zfp398, the z-score is inactive: 0.532.

On to CCCAGUUUAAGCACUUACATT against Ebaf, for which the z-score is inactive: 1.21.

For “GGUAAAUUACAAAGUGAAGTT against 5730469M10Rik”, the z-score is inactive: -0.696.

For the sequence GCCCUUACGUGGUAAAACCTT against Gm784, the z-score is inactive: 0.929.

For GGAGAACGUGGUACAAAGUTT against Sncg, the z-score was inactive: -1.36.

With GGCCUAUCUUCCCAGGAAATT against Mapk1, the z-score was active: 1.76.

As to CCCACUAAAAUCCUAUCUCTT against Ggta1, the z-score was inactive: -0.651.

As to “GGAUUUAAUGUACUAUGUGTT against 2210408I21Rik”, the z-score is inactive: 0.558.

With GCAAUGCAGUACUAAACUCTT against Cabc1, the z-score was inactive: -0.105.

GGAAUGUGUUCCAUAAUUUTT against Syn2: the z-score was inactive: -1.63.

Consider GGAGCUGGAUUCGACGUGATT against Cacna1c, for which the z-score is inactive: 1.46.

In the case of GCAGGAUACAAUGUAAAGCTT against Rab6, the z-score is inactive: -0.487.

GCCUAAAGCGGCCAAACCATT against Hist1h1e: the z-score is inactive: -1.05.

As for GGGACUUUGGUCAAUAAUGTT against Tcf19, the z-score is inactive: -0.162.

For “CCCUGGUCCAUCUCUAGUGTT against 2410043F08Rik”, the z-score was inactive: 1.1.

For the sequence GGAUGAAGAUGUGUCAAUATT against Api5, the z-score is inactive: -0.409.

For the sequence GCACAUUUAACUUCAGUCATT against Tgn, the z-score was inactive: -0.58.

Take GGACUGAUUGCUUUAGUAATT against Olfr1184: the z-score is inactive: -0.885.

On to “GGAAAAUACAGCUUUGUAATT against D12Ertd551e”, for which the z-score was inactive: -0.882.

Turning to “GGAAGAAUGCCUACUGAUATT against A030012M09Rik”, the z-score was inactive: 0.585.

As for GGGAAUUUAAUUUUUCGUGTT against Sfn, the z-score is inactive: 1.04.

With “GCGAAACUUCCAGAUCUAGTT against D1Bwg0212e”, the z-score was inactive: -1.53.

Turning to GGAAAUGUGGGAGAAAAUATT against H2-M1, the z-score is inactive: -1.86.

“GCAGUGUUAGACUUUUAUGTT against 2410011O22Rik”: the z-score is inactive: 0.894.

As to “GCUGUUACCCUUAUGCAGCTT against 2610524B01Rik”, the z-score was inactive: 0.8.

Consider “GGAUUUAUAGACAAGUUCUTT against 9830130M13”, for which the z-score is inactive: 2.59.

GGCUCAAGAAAGUGAAUGATT against Myog: the z-score was inactive: -0.717.

With GCCGAUAGCGGGAUUUAUUTT against Itsn1, the z-score is inactive: -0.702.

“GCAAAAAAUGCUCAGUUAGTT against 4932411L21Rik”: the z-score was inactive: -0.463.

On to GGAUAUUCGUUACCAUUAUTT against BC024479, for which the z-score was inactive: 0.261.

CCCAUUGUAUUCAUCAGAGTT against LOC436240: the z-score was inactive: 0.0614.

Consider CCUUUUUUCAUGUUAAUGGTT against Lmod1, for which the z-score is inactive: 1.27.

As for “GGGUAAUUGAAUGACUGAGTT against 8430432M10Rik”, the z-score was inactive: -1.41.

In the case of GGCACAAGAACCAUUUCUGTT against Nfe2l3, the z-score is inactive: -1.28.

On to “GGAAUAGAAGCUUUCACUGTT against A630023P12Rik”, for which the z-score is inactive: -0.511.

For CCCUUAGUGAACUUCUGUUTT against Tubb2, the z-score is inactive: 0.142.

As for GGACAAGAAAAAGGAUUAGTT against Clptm1, the z-score is inactive: 1.35.

For “GGUUCUUUUUGCCACAGCCTT against 5730472N09Rik”, the z-score was inactive: -0.112.

As for GGUGAAGAGACUGGAGAACTT against Sdpr, the z-score is inactive: -2.88.

As to GGCGAGAAACCAUACCUGUTT against Glis1, the z-score was inactive: 0.431.

For the sequence “GCAUAUGAACCUAAAACCCTT against D130060H24Rik”, the z-score was inactive: 0.0762.

GGUGUGACCAUCAAGCAUGTT against Nek8: the z-score is inactive: -0.308.

For the sequence GGAUGUCAAUGAGUUUGCATT against Clstn2, the z-score was inactive: -0.0561.

Turning to “CGUAAUCAGUGCAGUAAACTT against A130081B01”, the z-score was inactive: -0.649.

With GGUAUUCUCUAAGAAGGAGTT against Ccbl1, the z-score was inactive: -0.635.

In the case of CGAUGGAAGCACUUAUUUATT against Lep, the z-score was inactive: 1.38.

On to “GGAGAGAAAGAACUGGAAATT against A130092J06Rik”, for which the z-score is inactive: 0.997.

As to CCGACAAAUAAAGGCUUUATT against Ddx52, the z-score is inactive: -0.0103.

Turning to GGACUUCACCUACAGCAAGTT against Nr1h2, the z-score was inactive: 0.462.

GCGGGAGCUACACACGAUUTT against Dolpp1: the z-score was inactive: -0.937.

As for GGACCAGAGGUUAAUUUAUTT against Herpud1, the z-score is inactive: 1.4.

For the sequence CGUGACUGCACUUUAAGUATT against Pirb, the z-score is inactive: 0.74.

On to GCUAGAAAUAAGGCUGCACTT against BC026778, for which the z-score is inactive: -1.54.

For GGCUGUAAAACCCAAUCUATT against Top3a, the z-score is inactive: 1.42.
